The supplement of paper PMC4604168 (melanoma cell lines)
The list shows a part of the results. Single values are uncertain, as repeats are few or missing.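 Cells were imaged in 1,536-well plates, and nuclei stained with an antibody against cleaved PARP were counted against all DNA-stained nuclei to give the apoptosis fraction. Screening doses were chosen to leave most cells alive, and resting and induced cleaved-PARP levels differ strongly between cell lines.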

Columns and labels:
Assay in all cases: cleaved PARP positive nuclei fraction relative to DMSO control; melanoma cells; higher = more apoptosis
Details in all cases: library dose: low library concentration; 72 h
MZ2-MEL = system: MZ2-MEL
MeWo = system: MeWo
RPMI7951 = system: RPMI7951
RVH-421 = system: RVH-421
SkMel28 = system: SkMel28
SkMel30 = system: SkMel30
UACC62 = system: UACC62
WM115 = system: WM115
WM1716 = system: WM1716
WM1745 = system: WM1745
WM3526 = system: WM3526
WM3619 = system: WM3619
WM451Lu = system: WM451Lu
SkMel2 = system: SkMel2
SkMel5 = system: SkMel5
UACC257 = system: UACC257

SMILES | cleaved PARP positive nuclei fraction (MZ2-MEL) [%] | cleaved PARP positive nuclei fraction (MeWo) [%] | cleaved PARP positive nuclei fraction (RPMI7951) [%] | cleaved PARP positive nuclei fraction (RVH-421) [%] | cleaved PARP positive nuclei fraction (SkMel28) [%] | cleaved PARP positive nuclei fraction (SkMel30) [%] | cleaved PARP positive nuclei fraction (UACC62) [%] | cleaved PARP positive nuclei fraction (WM115) [%] | cleaved PARP positive nuclei fraction (WM1716) [%] | cleaved PARP positive nuclei fraction (WM1745) [%] | cleaved PARP positive nuclei fraction (WM3526) [%] | cleaved PARP positive nuclei fraction (WM3619) [%] | cleaved PARP positive nuclei fraction (WM451Lu) [%] | cleaved PARP positive nuclei fraction (SkMel2) [%] | cleaved PARP positive nuclei fraction (SkMel5) [%] | cleaved PARP positive nuclei fraction (UACC257) [%]
CO[C@H]1C[C@@H]2CC[C@@H](C)[C@@](O)(O2)C(=O)C(=O)N2CCCC[C@H]2C(=O)O[C@H]([C@H](C)C[C@@H]2CC[C@@H](OCCO)[C@H](OC)C2)CC(=O)[C@H](C)/C=C(\C)[C@@H](O)[C@@H](OC)C(=O)[C@H](C)C[C@H](C)/C=C/C=C/C=C/1C [everolimus] + C[C@]1(c2nc3c(C(N)=O)cccc3[nH]2)CCCN1 [Veliparib] (first compound 0.02 µM, partner dose 1.4 µM) | 80.5 | 151 | 73.4 | 94.1 | 70.6 | 35.6 | 110 | 248 | 91.7 | 133 | 99.7 | 107 | 50.2 |  |  | 
Cn1c(=O)n(-c2ccc(C(C)(C)C#N)cc2)c2c3cc(-c4cnc5ccccc5c4)ccc3ncc21 + COc1ccc(-c2ccc3c(N4CCOCC4)nc(N4C[C@@H](C)O[C@@H](C)C4)nc3n2)cc1CO [KU0063794] (first compound 0.004 µM, partner dose 0.02 µM) |  | 46.9 | 72.6 | 95.2 | 310 | 29.3 | 154 | 43.2 | 99.7 | 89.3 | 73.3 | 147 | 76.5 | 235 | 70.5 | 149
Nc1ncn([C@H]2C[C@H](O)[C@@H](CO)O2)c(=O)n1 [decitabine] + Cn1cncc1[C@@](N)(c1ccc(Cl)cc1)c1ccc2c(c1)c(-c1cccc(Cl)c1)cc(=O)n2C [tipifarnib] (first compound 0.1 µM, partner dose 0.01 µM) |  | 47.5 | 65.2 | 137 | 55.1 | 104 | 209 | 157 | 130 | 100 | 320 | 105 | 63.8 | 215 | 69.5 | 60.3
Cc1cc(Nc2cc(N3CCN(C)CC3)nc(/C=C/c3ccccc3)n2)n[nH]1 + COc1cc2ncnc(Nc3ccc(Oc4ccccc4)cc3)c2cc1OC [SrcI1] (first compound 0.04 µM, partner dose 2 µM) |  | 39 | 83.2 | 182 | 16.8 | 71 | 266 | 74.5 | 86.5 | 102 | 84.6 | 94.5 | 63.1 | 104 | 79.5 | 37.4
O=C(O)c1ccc2c(c1)nc(Nc1cccc(Cl)c1)c1ccncc12 + Cc1cc([N+](=O)[O-])ccc1NS(=O)(=O)c1cc(Cl)ccc1Cl [FH535] (first compound 0.4 µM, partner dose 1 µM) |  | 28.4 | 60.2 | 31.1 | 79.3 | 30.6 | 180 | 60.1 | 110 | 92.7 | 89 | 77.2 | 61.3 | 76.3 | 81 | 115
C[C@@H](Oc1cc(-c2cnn(C3CCNCC3)c2)cnc1N)c1c(Cl)ccc(F)c1Cl [Crizotinib] + O=C(Nc1cccc(Cl)c1)Nc1ncc(CCNc2ncnc3ccsc23)s1 [SNS314] (first compound 0.2 µM, partner dose 0.0008 µM) |  | 54.4 | 280 | 80 | 43.1 | 116 | 146 | 172 | 91.3 | 80.9 | 59.9 | 226 | 365 | 161 | 139 | 71.4
O=C(O)[C@@H]1[O][Sb](=[O])([O][Sb]2(=[O])[O][C@H]([C@H](O)CO)[C@H](O)[C@H](C(=O)O)[O]2)[O][C@H]([C@H](O)CO)[C@@H]1O (stereo partly drawn) [stibogluconate] + COc1cc2ncnc(Nc3ccc(Oc4ccccc4)cc3)c2cc1OC [SrcI1] (first compound 2 µM, partner dose 2 µM) |  | 40.2 | 132 | 64.5 | 36.2 | 54.4 | 89.2 | 92.8 | 84.5 | 101 | 76.3 | 79.3 | 189 | 70.7 | 67.6 | 51.3
